Test results: publication PMC11063955, “A multiplexed time-resolved fluorescence resonance energy transfer ultrahigh-throughput screening assay for targeting the SMAD4–SMAD3–DNA complex” (Journal of Molecular Cell Biology, 2023)
Results are given in words; binding and its absence hold for the method and conditions named. For some assays here: Binding seen in cells or lysates may run through a third protein. Some binding calls cover weakened binding; strength is not graded here. Where a sequence is shown, tags or fusion partners need not be part of it.

T1: His-tagged SMAD4 WT (Mothers against decapentaplegic homolog 4), Q13485
T1 chain: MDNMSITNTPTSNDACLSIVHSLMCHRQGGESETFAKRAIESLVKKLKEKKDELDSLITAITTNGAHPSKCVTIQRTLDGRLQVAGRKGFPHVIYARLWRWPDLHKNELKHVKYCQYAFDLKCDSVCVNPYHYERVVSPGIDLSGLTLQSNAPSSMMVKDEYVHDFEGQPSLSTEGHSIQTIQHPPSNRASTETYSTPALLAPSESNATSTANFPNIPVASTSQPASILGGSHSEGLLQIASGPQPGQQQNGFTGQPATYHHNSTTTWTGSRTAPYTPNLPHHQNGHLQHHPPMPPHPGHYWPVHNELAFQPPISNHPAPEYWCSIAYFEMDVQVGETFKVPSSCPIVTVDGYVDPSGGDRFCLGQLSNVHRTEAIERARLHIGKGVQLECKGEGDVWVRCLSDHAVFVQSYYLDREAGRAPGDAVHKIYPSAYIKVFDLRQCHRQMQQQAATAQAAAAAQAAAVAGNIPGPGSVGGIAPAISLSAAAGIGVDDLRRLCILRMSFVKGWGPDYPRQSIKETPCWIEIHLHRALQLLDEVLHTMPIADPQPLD

T2: GST-SMAD4 (full-length), Q13485
T2 chain: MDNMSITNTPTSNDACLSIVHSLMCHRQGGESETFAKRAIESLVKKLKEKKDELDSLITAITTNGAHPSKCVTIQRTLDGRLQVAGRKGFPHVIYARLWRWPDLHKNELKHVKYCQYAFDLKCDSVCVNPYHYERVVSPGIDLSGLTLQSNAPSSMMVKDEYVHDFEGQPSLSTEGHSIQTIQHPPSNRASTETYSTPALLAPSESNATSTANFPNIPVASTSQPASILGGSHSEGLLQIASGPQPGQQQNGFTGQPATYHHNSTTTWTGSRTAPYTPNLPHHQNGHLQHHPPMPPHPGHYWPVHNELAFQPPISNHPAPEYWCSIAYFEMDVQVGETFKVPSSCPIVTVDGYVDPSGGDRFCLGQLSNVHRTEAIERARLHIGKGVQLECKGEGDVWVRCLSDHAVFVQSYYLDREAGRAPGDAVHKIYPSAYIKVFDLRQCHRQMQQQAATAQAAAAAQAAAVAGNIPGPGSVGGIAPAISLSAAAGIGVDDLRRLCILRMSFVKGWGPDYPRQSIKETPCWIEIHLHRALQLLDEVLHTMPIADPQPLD


Key:
[1] = molecular target: T1, His-tagged SMAD4 WT (Mothers against …); assay: AlphaScreen or HTRF; TR-FRET (Tb-D2) on serially diluted lysate of HEK293T cells co-expressing His-SMAD4 and Flag-SMAD3; anti-FLAG M2-Tb cryptate and anti-6xHis-D2 antibodies; FRET buffer 20 mM Tris-HCl pH 7.0, 50 mM NaCl, 0.01% NP-40; 384-well plate, 4°C for 30 min; no DNA; settings: remark: other sources report otherwise
[2] = molecular target: T2, GST-SMAD4 (full-length), Q13485; assay: pull-down; GST pull-down from lysates of HEK293T cells transfected with both partners; 1% NP-40 lysis buffer; lysates incubated with compounds (GA or GNA, or control) for 16 h at 4°C, then glutathione-conjugated beads 2 h at 4°C; western blot with anti-FLAG-HRP and anti-GST-HRP; no DNA oligonucleotides; settings: remark: other sources report otherwise

| binding [2] | Binder | binding [1] |
| --- | --- | --- |
|  | Flag-tagged SMAD3 WT, P84022 1-425 (natural protein) MSSILPFTPPIVKRLLGWKKGEQNGQEEKWCEKAVKSLVKKLKKTGQLDELEKAITTQNVNTKCITIPRSLDGRLQVSHRKGLPHVIYCRLWRWPDLHSHHELRAMELCEFAFNMKKDEVCVNPYHYQRVETPVLPPVLVPRHTEIPAEFPPLDDYSHSIPENTNFPAGIEPQSNIPETPPPGYLSEDGETSDHQMNHSMDAGSPNLSPNPMSPAHNNLDLQPVTYCEPAFWCSISYYELNQRVGETFHASQPSMTVDGFTDPSNSERFCLGLLSNVNRNAAVELTRRHIGRGVRLYYIGGEVFAECLSDSAIFVQSPNCNQRYGWHPATVCKIPPGCNLKIFNNQEFAALLAQSVNQGFEAVYQLTRMCTIRMSFVKGWGAEYRRQTVTSTPCWIELHLNGPLQWLDKVLTQMGSPSIRCSSVS | binds |
| binds | Venus-flag-tagged SMAD3 (full-length), P84022 1-425 (protein) MSSILPFTPPIVKRLLGWKKGEQNGQEEKWCEKAVKSLVKKLKKTGQLDELEKAITTQNVNTKCITIPRSLDGRLQVSHRKGLPHVIYCRLWRWPDLHSHHELRAMELCEFAFNMKKDEVCVNPYHYQRVETPVLPPVLVPRHTEIPAEFPPLDDYSHSIPENTNFPAGIEPQSNIPETPPPGYLSEDGETSDHQMNHSMDAGSPNLSPNPMSPAHNNLDLQPVTYCEPAFWCSISYYELNQRVGETFHASQPSMTVDGFTDPSNSERFCLGLLSNVNRNAAVELTRRHIGRGVRLYYIGGEVFAECLSDSAIFVQSPNCNQRYGWHPATVCKIPPGCNLKIFNNQEFAALLAQSVNQGFEAVYQLTRMCTIRMSFVKGWGAEYRRQTVTSTPCWIELHLNGPLQWLDKVLTQMGSPSIRCSSVS |  |
